Laboratory results as given in PubChem BioAssay AID758 (NMMLSC, 2007).
The whole screen tested about 190,000 compounds, of which about 110 (0.058%) were called active. This list was built around the results that the source calls inconclusive (neither active nor inactive); the mix of calls is not that of the screen.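 How the source made its calls: active means fluorescent GTP binding to Rab7 beads changed by at least 20 points from the 100% baseline, either direction, mostly lower; inconclusive means compound itself probably fluorescent, or too few beads counted; inactive means the rest.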

system: Rab7 GTPase wild type (dog), Bodipy-FL-GTP binding; experiment: modulators of GTP binding to Rab7, primary screen, biochemical, wildtype, multiplex bead flow cytometry (AID 758); conditions: GST-Rab7 beads, fluorescent GTP binding, at 10 µM, actives lie on both sides, untreated = 100%, excess cold GTP = 0%;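 further: median green fluorescence of bound Bodipy-FL-GTP per Rab7 bead population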

Structure (SMILES)	GTP binding activity (percent of control)
CCc1ccc(NC(=O)CNC(=O)c2cn(-c3ccccc3OC)c(=O)c3ccccc23)cc1	inconclusive: 95%
CCN(CC)C(=O)N(CC)Cc1ccccc1	inactive: 96%
COc1cc(C)c(S(=O)(=O)NCc2cccs2)cc1C	inconclusive: 93%
COc1ccccc1NC(=O)CSc1nc2n[nH]c(C)c2c(=N)n1-c1ccccc1Cl	inconclusive: 87%
COC(=O)CSc1nnc(CNC(=O)c2cccc(C)c2)n1-c1ccccc1OC	inconclusive: 103%
CCN(CC)C(=O)Cn1nnc(-c2ccc(S(C)(=O)=O)cc2)n1	inactive: 99%
COc1ccc(CCN(C)c2ccc(S(=O)(=O)N3CCCC3)cc2[N+](=O)[O-])cc1OC	inactive: 101%
COc1ccc(C(=O)Nc2ccccc2C(=O)N2CCCCC2C)cc1 (configuration not stated)	inactive: 108%
O=C(NCCO)C(O)C(O)C(=O)NCCO (configuration not stated)	inactive: 98%
C/C(=N\NC(=O)Cc1csc(N2CCOCC2)n1)c1ccc(Cl)c(Cl)c1	inconclusive: 96%
Cc1ccsc1/C=N/NC(=O)c1ccc(-n2cccc2)cc1	inactive: 107%
COc1ccc(/C=C(/C#N)C(=O)Nc2ccc(O)cc2)cc1C(=O)O	inconclusive: 89%
COCCNc1nc2c(c(=O)n(Cc3ccc(OC)cc3)c(=O)n2C)n1C	inactive: 93%
Cc1nc2sc3c(c2c(=O)n1NC(=O)CCl)CCCC3	inactive: 90%
O=C(O)c1ccccc1S(=O)CCO (configuration not stated)	inconclusive: 102%
O=C(Nc1cc(Cl)c(O)c(Cl)c1)C1CCCO1 (configuration not stated)	inconclusive: 101%
C/C(=N\Nc1ccc(C(=O)O)cc1)c1ccc(-n2ccnc2)cc1	inactive: 97%
O=C/C(=C\Nc1ccc(C(=O)N2CCOCC2)cc1)c1nc2ccccc2o1	inactive: 96%
O=C(O)c1ccc2c(=O)n3c(nc2c1)/C(=C/c1cccc(Cl)c1Cl)CCCC3	inactive: 98%
CCOC(=O)Nc1ccc(C)cc1NC(=O)OCC	inconclusive: 104%
OC(CNCC(c1ccco1)N1CCCCC1)c1ccccc1 (configuration not stated)	inconclusive: 108%
CCOc1ccc(C(=O)Cc2cc(OC)c(OC)cc2[N+](=O)[O-])cc1	inconclusive: 107%
COc1cc(C(=S)N2CCCC2)ccc1O	inconclusive: 90%

Structure (SMILES)	GTP binding activity (percent of control)
COc1ccc(-c2cc(C3CC3)nc3sc(C#N)c(N)c23)cc1	inconclusive: 96%
Cc1c(NS(=O)(=O)c2cccc(C(=O)OCC(=O)N(C)C3CCCCC3)c2)c(=O)n(-c2ccccc2)n1C	inactive: 102%
Cc1ccc(NCc2nnc(SCC(=O)Nc3cccc(O)c3)n2CC2CCCO2)c(C)c1 (configuration not stated)	inconclusive: 101%
Cc1noc(NS(=O)(=O)c2ccc(N/C=C/C(=O)c3ccc4c(c3)OCO4)cc2)c1C	inconclusive: 96%
COCCn1c(SCC(=O)Nc2ccc(OC)cc2)nc2c(oc3ccccc32)c1=O	inconclusive: 93%
COc1ccc(NC(=O)COC(=O)c2ccc(OCc3c(C)noc3C)cc2)cc1OC	inactive: 101%
O=C(CN1C(=O)c2cccc3cccc(c23)C1=O)NCCN1CCOCC1	inconclusive: 102%
COc1ccc(OC)c(NC(=O)c2ccc(CN3CCOCC3)cc2)c1	inconclusive: 103%
COc1cc(N(C)C)c([N+](=O)[O-])cc1C(=O)N1CCN(Cc2ccccc2)CC1	inactive: 103%
Cc1ccc(C(=O)Oc2coc(CSc3nnc(NC(=O)c4cccs4)s3)cc2=O)cc1C	inconclusive: 88%
CCCCCCn1c(Br)nc2c1c(=O)n(C)c(=O)n2C	inconclusive: 94%
CC12CCC(C(=O)NCCCn3ccnc3)(OC1=O)C2(C)C (configuration not stated)	inconclusive: 113%
CCOC(=O)c1ccc(-n2c(C)ccc2C)cc1	inconclusive: 97%
CC(C)c1[nH]nc2c1C(Cc1ccccc1)C(C#N)=C(N)O2 (configuration not stated)	inconclusive: 96%
CCN(C(=O)Cc1c(C(=O)O)[nH]c2ccccc12)c1ccc(OC)cc1	inconclusive: 96%
COc1cc(/C=C(\C#N)c2[nH]nc(N)c2C#N)cc(OC)c1O	inconclusive: 91%
O=C(NCc1cccnc1)C(=O)Nc1ccc([N+](=O)[O-])cc1	inactive: 108%
CN1CCN(CC(=O)N2c3ccccc3C(C)(c3ccccc3)CC2(C)C)CC1 (configuration not stated)	inconclusive: 102%
Cc1cc(C(=O)Cn2nc(C(=O)O)c3ccccc3c2=O)c(C)n1-c1ccc(F)cc1	inactive: 94%
CCOC(=O)c1sc2nccc(N(C)C)c2c1N=CN(C)C	inconclusive: 102%
Cc1sc2nc3ccc(NCc4ccco4)nn3c(=O)c2c1C	active: 18%
O=C(O)CCC(=O)N1CCc2cc(S(=O)(=O)N3CCCCC3)ccc21	inconclusive: 98%
CCn1c(=O)c(C(=O)NNS(=O)(=O)c2ccc(Br)cc2)c(O)c2ccccc21	inconclusive: 88%

Structure (SMILES)	GTP binding activity (percent of control)
CN(c1cccc(NC(=O)CN(c2ccc(C34CC5CC(CC(C5)C3)C4)cc2)S(C)(=O)=O)c1)S(C)(=O)=O	inactive: 98%
COc1ccc(OC)c(/C=C/C(=O)OCC(=O)Nc2ccc3c(c2)OCCO3)c1	inconclusive: 92%
CN(C)c1ccc(/C=C/c2ccc3c4ccccc4ccc3[n+]2-c2ccccc2)cc1	inconclusive: 60%
O=S1(=O)CCC(NC(=S)N2CCOCC2)C1 (configuration not stated)	inactive: 99%
CC(C(=O)NC(C)(C)C)N1C(=O)c2cccc3cccc(c23)C1=O (configuration not stated)	inconclusive: 94%
CCOC(=O)C1=C(N)OC2=C(C(=O)CCC2)C1c1ccco1 (configuration not stated)	inactive: 98%
N#Cc1c(N)nc2c3c(sc(=N)c2c1N)NC(=O)CC3c1ccccc1 (configuration not stated)	inconclusive: 89%
O=C(NCc1ccccc1Cl)C(=O)NCC(c1ccco1)N1CCOCC1 (configuration not stated)	inactive: 105%
O=c1nc(NCc2ccco2)sc2ncccc12	inconclusive: 97%
COc1ccc(/C=C/C(=O)C2C(=O)C=C(C)OC2=O)cc1O (configuration not stated)	inconclusive: 95%
CN1CCC2(CC1)C1CN(C)CC=C1C(C#N)=C(N)C2(C#N)C#N (configuration not stated)	inconclusive: 96%
CCOC(=O)C1CCCN(C(=O)c2cccc(NC(=O)C(CC)CC)c2)C1 (configuration not stated)	inactive: 97%
C/C(=N/NC(=O)c1ccoc1C)c1cccc(NC(=O)C2CC2)c1	inconclusive: 100%
N#CCCN1CCN(S(=O)(=O)c2cc(Cl)ccc2Cl)CC1	inconclusive: 97%
NC(=O)c1ccccc1NC(=S)NC(=O)CCc1ccccc1	inconclusive: 103%
NC(=O)CSc1cn(Cc2ccccc2)c2ccccc12	inactive: 98%
O=c1c2cc(NC(=S)NC3CC3)ccc2nc2n1CCCCC2	inconclusive: 97%
Cc1cc(=O)n2nc(N3CCCC3C(=O)NCCCN3CC(C)CC(C)C3)sc2n1 (configuration not stated)	inconclusive: 106%
CC1=C(C(=O)OCc2ccc(C)cc2)C(c2ccc(O)c([N+](=O)[O-])c2)NC(=O)N1 (configuration not stated)	inconclusive: 91%
CCOc1cc(C#N)c(NC(=O)Cn2nnc3ccccc32)cc1OCC	inconclusive: 102%
CCCN1C(=O)C(O)(C2COC(C)(C)CC2=O)c2ccccc21 (configuration not stated)	inconclusive: 98%
CN1CCN(CCC(=O)N2c3ccccc3Sc3ccc(Cl)cc32)CC1	inactive: 98%
COc1cccc(/C=N/NC(=O)C(C)Sc2ccccc2)c1 (configuration not stated)	inactive: 99%

Structure (SMILES)	GTP binding activity (percent of control)
COc1cccc(Nc2ccccc2C(=O)O)c1	active: 127% [activator]
COc1ccc(CNc2nc3nc(C)cc(C)n3n2)cc1	inconclusive: 102%
O=C(CSc1nnc2c3ccccc3c3ccccc3c2n1)Nc1ccccc1	inconclusive: 90%
CC(C)NC(=O)COc1nncc2ccccc12	inactive: 101%
Cc1csc(NC(=O)C2CCN(S(=O)(=O)c3cccs3)CC2)n1	inconclusive: 94%
O=C(Nc1ccccc1C(=O)O)/C(=C/c1ccc([N+](=O)[O-])cc1)NC(=O)c1ccc(Br)o1	inactive: 94%
Cc1ccc(N2CCN(c3ccc(C)cc3)C2c2ccncc2)cc1	inactive: 102%
CS(=O)(=O)N(CC(=O)NCCSc1ccccn1)c1ccc(F)cc1	inconclusive: 97%
O=C(CCc1ccccc1)c1nnc(-c2ccccc2)o1	inactive: 103%
CCc1ccc2[nH]c(=O)c(CN(Cc3ccc4c(c3)OCO4)C(=O)c3ccco3)cc2c1	inconclusive: 90%
CCCCN(C(=O)/C=C/c1ccco1)c1c(N)n(CC(C)C)c(=O)[nH]c1=O	inactive: 98%
O=C(CSc1nnnn1-c1ccccc1)Nc1nsc(-c2ccc(Cl)cc2)n1	inconclusive: 104%
O=S1(=O)N=C(N(CCO)/N=C/c2ccncc2)c2ccccc21	inactive: 83%
Cc1ccc(N/N=C2/CCCNC2=O)cc1	inconclusive: 94%
Cc1ccc(-c2nc3ccccc3s2)cc1NC(=S)NC(=O)c1cccc2ccccc12	inconclusive: 90%
CCn1cnc2sc(C)c(C)c2c1=O	inconclusive: 95%
COc1ccc(N(CC(=O)N/N=C/c2cc(Br)c(C)o2)S(=O)(=O)c2ccc(NC(C)=O)cc2)cc1	inconclusive: 93%
O=C(c1n[nH]c(=O)c2ccccc12)N1CCN(C2c3ccccc3-c3ccccc32)CC1	inconclusive: 27%
O=C(NC12CC3CC(CC(C3)C1)C2)N1CCN(C(=O)C2CCCO2)CC1 (configuration not stated)	inconclusive: 104%
COC(=O)CCNS(=O)(=O)c1ccc2ccccc2c1	inconclusive: 98%
O=S(=O)(c1ccc2nc(SCc3cccc(Cl)c3)[nH]c2c1)N1CCOCC1	inconclusive: 98%
COc1cccc(OCCOCCN(C)CCO)c1	inconclusive: 101%
O=[N+]([O-])c1ccc2nc(-c3ccc(Cl)cc3)n(OCc3ccccc3)c2c1	inconclusive: 102%

Rewritten comma-delimited: part of the list above.
Structure (SMILES),GTP binding activity (percent of control)
O=C(NC12CC3CC(CC(C3)C1)C2)N1CCN(C(=O)C2CCCO2)CC1 (configuration not stated),inconclusive: 104%
COC(=O)CCNS(=O)(=O)c1ccc2ccccc2c1,inconclusive: 98%
O=S(=O)(c1ccc2nc(SCc3cccc(Cl)c3)[nH]c2c1)N1CCOCC1,inconclusive: 98%
COc1cccc(OCCOCCN(C)CCO)c1,inconclusive: 101%
